Consider three substances from paper PMC7466728.

Results are given in words; binding and its absence hold for the method and conditions named. Binding can be weak; no strength is given.

This experiment deals with T1, AtTT8 (Arabidopsis thaliana) (UniProt Q9FT81).
T1 sequence: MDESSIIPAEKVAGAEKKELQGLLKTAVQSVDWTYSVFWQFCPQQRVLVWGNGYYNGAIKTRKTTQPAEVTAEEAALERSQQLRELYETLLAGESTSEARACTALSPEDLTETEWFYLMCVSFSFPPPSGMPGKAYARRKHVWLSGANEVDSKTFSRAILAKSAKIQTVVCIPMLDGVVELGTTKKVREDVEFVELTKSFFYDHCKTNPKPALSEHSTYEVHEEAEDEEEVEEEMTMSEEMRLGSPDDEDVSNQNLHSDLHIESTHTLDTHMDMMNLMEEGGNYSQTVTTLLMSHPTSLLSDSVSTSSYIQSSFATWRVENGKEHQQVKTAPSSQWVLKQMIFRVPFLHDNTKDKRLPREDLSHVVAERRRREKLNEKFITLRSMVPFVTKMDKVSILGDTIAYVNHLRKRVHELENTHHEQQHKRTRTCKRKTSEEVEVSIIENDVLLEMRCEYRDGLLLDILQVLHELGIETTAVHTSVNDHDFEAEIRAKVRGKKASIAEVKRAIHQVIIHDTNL
Nature of the experiment: two-hybrid; yeast AH109; AtTT8 in pGBKT7 (BD) as bait, BnaPAP2.A7 transcripts in pGADT7 (AD) as prey; colonies from SD/-Leu/-Trp tested on SD/-Leu/-Trp/-His/-Ade.
In the case of “BnaPAP2.A7-395 encoded protein (Brassica napus)”, the binding entry was “no binding”. Then “BnaPAP2.A7-744 encoded protein (Brassica napus)”, with “binds”; and “BnaPAP2.A7-910 encoded protein (Brassica napus)”, with “no binding”.
